The list shows a part of the results.
Key:
Assay in all cases: glycan array binding signal (z-score within array); higher = stronger binding
Conditions in all cases: glycan notation: IUPAC condensed, linker removed
Neu5Ac(a2-3)Gal(b1-4)Glc = biological target: Neu5Ac(a2-3)Gal(b1-4)Glc
Procedure, shortened: (§1)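 Glycan array binding is given as a within-array Z-score, which can be read as non-binding when negative. The arrays, 3228 of them, came from the Consortium for Functional Glycomics database and were retained only where the protein sequence was available. Z-scores were averaged across arrays of the same protein sequence at different concentrations or buffers and across linkers.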

[1] = biological target: Neu5Ac(a2-3)Gal(b1-4)GlcNAc
Procedure, shortened: as §1

[2] = biological target: Neu5Ac(a2-3)Gal(b1-4)GlcNAc(b1-2)Man
Procedure, shortened: as §1

[3] = biological target: Neu5Ac(a2-3)Gal(b1-4)GlcNAc(b1-2)Man(a1-3)[GlcNAc(b1-4)][Neu5Ac(a2-3)Gal(b1-4)GlcNAc(b1-2)Man(a1-6)]Man(b1-4)GlcNAc(b1-4)GlcNAc
Procedure, shortened: as §1

[4] = biological target: Neu5Ac(a2-3)Gal(b1-4)GlcNAc(b1-2)Man(a1-3)[Neu5Ac(a2-3)Gal(b1-4)GlcNAc(b1-2)Man(a1-6)]Man(b1-4)GlcNAc(b1-4)GlcNAc
Procedure, shortened: as §1

[5] = biological target: Neu5Ac(a2-3)Gal(b1-4)GlcNAc(b1-2)Man(a1-3)[Neu5Ac(a2-3)Gal(b1-4)GlcNAc(b1-2)Man(a1-6)]Man(b1-4)GlcNAc(b1-4)[Fuc(a1-6)]GlcNAc
Procedure, shortened: as §1

[6] = biological target: Neu5Ac(a2-3)Gal(b1-4)GlcNAc(b1-2)Man(a1-3)[Neu5Ac(a2-6)Gal(b1-4)GlcNAc(b1-2)Man(a1-6)]Man(b1-4)GlcNAc(b1-4)GlcNAc
Procedure, shortened: as §1

[7] = biological target: Neu5Ac(a2-3)Gal(b1-4)GlcNAc(b1-2)[Neu5Ac(a2-3)Gal(b1-4)GlcNAc(b1-4)]Man(a1-3)[GlcNAc(b1-4)][Neu5Ac(a2-3)Gal(b1-4)GlcNAc(b1-2)[Neu5Ac(a2-3)Gal(b1-4)GlcNAc(b1-6)]Man(a1-6)]Man(b1-4)GlcNAc(b1-4)GlcNAc
Procedure, shortened: as §1

[8] = biological target: Neu5Ac(a2-3)Gal(b1-4)GlcNAc(b1-2)[Neu5Ac(a2-3)Gal(b1-4)GlcNAc(b1-4)]Man(a1-3)[GlcNAc(b1-4)][Neu5Ac(a2-3)Gal(b1-4)GlcNAc(b1-4)Man(a1-6)]Man(b1-4)GlcNAc(b1-4)GlcNAc
Procedure, shortened: as §1

[9] = biological target: Neu5Ac(a2-3)Gal(b1-4)GlcNAc(b1-2)[Neu5Ac(a2-3)Gal(b1-4)GlcNAc(b1-6)]Man(a1-6)[Neu5Ac(a2-3)Gal(b1-4)GlcNAc(b1-2)Man(a1-3)]Man(b1-4)GlcNAc(b1-4)GlcNAc
Procedure, shortened: as §1

[10] = biological target: Neu5Ac(a2-3)Gal(b1-4)GlcNAc(b1-2)[Neu5Ac(a2-3)Gal(b1-4)GlcNAc(b1-6)]Man(a1-6)[Neu5Ac(a2-3)Gal(b1-4)GlcNAc(b1-2)Man(a1-3)][GlcNAc(b1-4)]Man(b1-4)GlcNAc(b1-4)GlcNAc
Procedure, shortened: as §1

[11] = biological target: Neu5Ac(a2-3)Gal(b1-4)GlcNAc(b1-3)Gal
Procedure, shortened: as §1

[12] = biological target: Neu5Ac(a2-3)Gal(b1-4)GlcNAc(b1-3)Gal(b1-3)GlcNAc
Procedure, shortened: as §1

[13] = biological target: Neu5Ac(a2-3)Gal(b1-4)GlcNAc(b1-3)Gal(b1-4)GlcNAc
Procedure, shortened: as §1

[14] = biological target: Neu5Ac(a2-3)Gal(b1-4)GlcNAc(b1-3)Gal(b1-4)GlcNAc(b1-2)Man(a1-3)[Neu5Ac(a2-3)Gal(b1-4)GlcNAc(b1-3)Gal(b1-4)GlcNAc(b1-2)Man(a1-6)]Man(b1-4)GlcNAc(b1-4)GlcNAc
Procedure, shortened: as §1

[15] = biological target: Neu5Ac(a2-3)Gal(b1-4)GlcNAc(b1-3)Gal(b1-4)GlcNAc(b1-3)Gal(b1-4)GlcNAc
Procedure, shortened: as §1

[16] = biological target: Neu5Ac(a2-3)Gal(b1-4)GlcNAc(b1-3)Gal(b1-4)GlcNAc(b1-3)Gal(b1-4)GlcNAc(b1-2)Man(a1-3)[Neu5Ac(a2-3)Gal(b1-4)GlcNAc(b1-3)Gal(b1-4)GlcNAc(b1-3)Gal(b1-4)GlcNAc(b1-2)Man(a1-6)]GalNAc
Procedure, shortened: as §1

[17] = biological target: Neu5Ac(a2-3)Gal(b1-4)GlcNAc(b1-3)Gal(b1-4)GlcNAc(b1-3)GalNAc
Procedure, shortened: as §1

[18] = biological target: Neu5Ac(a2-3)Gal(b1-4)GlcNAc(b1-3)Gal(b1-4)GlcNAc(b1-3)[Neu5Ac(a2-3)Gal(b1-4)GlcNAc(b1-3)Gal(b1-4)GlcNAc(b1-6)]GalNAc
Procedure, shortened: as §1

[19] = biological target: Neu5Ac(a2-3)Gal(b1-4)GlcNAc(b1-3)Gal(b1-4)GlcNAc(b1-6)[Gal(b1-3)]GalNAc
Procedure, shortened: as §1

[20] = biological target: Neu5Ac(a2-3)Gal(b1-4)GlcNAc(b1-3)Gal(b1-4)[Fuc(a1-3)]GlcNAc
Procedure, shortened: as §1

[21] = biological target: Neu5Ac(a2-3)Gal(b1-4)GlcNAc(b1-3)GalNAc
Procedure, shortened: as §1

[22] = biological target: Neu5Ac(a2-3)Gal(b1-4)GlcNAc(b1-3)[Neu5Ac(a2-3)Gal(b1-4)GlcNAc(b1-6)]GalNAc
Procedure, shortened: as §1

[23] = biological target: Neu5Ac(a2-3)Gal(b1-4)GlcNAc(b1-6)GalNAc
Procedure, shortened: as §1

[24] = biological target: Neu5Ac(a2-3)Gal(b1-4)GlcNAc(b1-6)[Gal(b1-3)]GalNAc
Procedure, shortened: as §1

[25] = biological target: Neu5Ac(a2-3)Gal(b1-4)GlcNAc(b1-6)[Neu5Ac(a2-3)Gal(b1-3)]GalNAc
Procedure, shortened: as §1

[26] = biological target: Neu5Ac(a2-3)Gal(b1-4)GlcNAc6S
Procedure, shortened: as §1

[27] = biological target: Neu5Ac(a2-3)Gal(b1-4)[Fuc(a1-3)]GlcNAc
Procedure, shortened: as §1

[28] = biological target: Neu5Ac(a2-3)Gal(b1-4)[Fuc(a1-3)]GlcNAc(b1-2)Man
Procedure, shortened: as §1

[29] = biological target: Neu5Ac(a2-3)Gal(b1-4)[Fuc(a1-3)]GlcNAc(b1-3)Gal
Procedure, shortened: as §1

[30] = biological target: Neu5Ac(a2-3)Gal(b1-4)[Fuc(a1-3)]GlcNAc(b1-3)Gal(b1-4)GlcNAc
Procedure, shortened: as §1

[31] = biological target: Neu5Ac(a2-3)Gal(b1-4)[Fuc(a1-3)]GlcNAc(b1-3)Gal(b1-4)[Fuc(a1-3)]GlcNAc(b1-3)Gal(b1-4)[Fuc(a1-3)]GlcNAc
Procedure, shortened: as §1

[32] = biological target: Neu5Ac(a2-3)Gal(b1-4)[Fuc(a1-3)]GlcNAc(b1-3)GalNAc
Procedure, shortened: as §1

[33] = biological target: Neu5Ac(a2-3)Gal(b1-4)[Fuc(a1-3)]GlcNAc(b1-6)[Gal(b1-3)]GalNAc
Procedure, shortened: as §1

[34] = biological target: Neu5Ac(a2-3)Gal(b1-4)[Fuc(a1-3)]GlcNAc(b1-6)[Neu5Ac(a2-3)Gal(b1-3)]GalNAc
Procedure, shortened: as §1

[35] = biological target: Neu5Ac(a2-3)Gal(b1-4)[Fuc(a1-3)]GlcNAc6S
Procedure, shortened: as §1

[36] = biological target: Neu5Ac(a2-3)Gal6S(b1-4)GlcNAc
Procedure, shortened: as §1

[37] = biological target: Neu5Ac(a2-3)Gal6S(b1-4)[Fuc(a1-3)]GlcNAc
Procedure, shortened: as §1

B1: Protein L(B1-B4) (Finegoldia magna), Q51912 (protein)
chain: KEETPETPETDSEEEVTIKANLIFANGSTQTAEFKGTFEKATSEAYAYADTLKKDNGEYTVDVADKGYTLNIKFAGKEKTPEEPKEEVTIKANLIYADGKTQTAEFKGTFEEATAEAYRYADALKKDNGEYTVDVADKGYTLNIKFAGKEKTPEEPKEEVTIKANLIYADGKTQTAEFKGTFEEATAEAYRYADLLAKENGKYTVDVADKGYTLNIKFAGKEKTPEEPKEEVTIKANLIYADGKTQTAEFKGTFAEATAEAYRYADLLAKENGKYTADLEDGGYTINIRFAG
- glycan array binding signal (z-score) (Neu5Ac(a2-3)Gal(b1-4)Glc): 0.184
- glycan array binding signal (z-score) [1]: -0.799
- glycan array binding signal (z-score) [2]: 0.654
- glycan array binding signal (z-score) [3]: -0.728
- glycan array binding signal (z-score) [4]: -0.503
- glycan array binding signal (z-score) [5]: 1.45
- glycan array binding signal (z-score) [6]: -1.02
- glycan array binding signal (z-score) [7]: -0.913
- glycan array binding signal (z-score) [8]: -0.805
- glycan array binding signal (z-score) [9]: 0.844
- glycan array binding signal (z-score) [10]: -0.715
- glycan array binding signal (z-score) [11]: -0.978
- glycan array binding signal (z-score) [12]: -0.446
- glycan array binding signal (z-score) [13]: -1
- glycan array binding signal (z-score) [14]: 1.16
- glycan array binding signal (z-score) [15]: -1.05
- glycan array binding signal (z-score) [16]: 2.34
- glycan array binding signal (z-score) [17]: 0.742
- glycan array binding signal (z-score) [18]: 0.607
- glycan array binding signal (z-score) [19]: 0.685
- glycan array binding signal (z-score) [20]: -0.359
- glycan array binding signal (z-score) [21]: -0.004
- glycan array binding signal (z-score) [22]: -0.878
- glycan array binding signal (z-score) [23]: -0.414
- glycan array binding signal (z-score) [24]: -0.434
- glycan array binding signal (z-score) [25]: -0.185
- glycan array binding signal (z-score) [26]: -0.92
- glycan array binding signal (z-score) [27]: -0.762
- glycan array binding signal (z-score) [28]: 0.666
- glycan array binding signal (z-score) [29]: -0.987
- glycan array binding signal (z-score) [30]: 0.336
- glycan array binding signal (z-score) [31]: 0.738
- glycan array binding signal (z-score) [32]: 0.972
- glycan array binding signal (z-score) [33]: 2.09
- glycan array binding signal (z-score) [34]: 2.49
- glycan array binding signal (z-score) [35]: -1.03
- glycan array binding signal (z-score) [36]: -0.901
- glycan array binding signal (z-score) [37]: -0.538

From the supplement of paper PMC8728848
